# The other results are listed elsewhere or left out.
# B1: Ovorubin (Pomacea canaliculata), J7I2T6 (protein)
# chain: MFVATSLLLAIATLVVRASPHNYLIMDIEPPKSVSERDILNLLSPLQVKHSFRVTGSTRLLIVIRLDAQSYEKLDEITVPGKVEVIPAVNMADTMERCGVSWPRVELTDDNVTLFESESTLTDVTKEQLKAMLIGYGEHMSGLLQAHRFEYYQAAGATPHRHFVFVNSVPDEIEVFGREGVDIWGGPGEFVVKPQYVTRI
# Experiments:
# Test in all cases: glycan array binding signal (z-score within array); higher = stronger binding
# Settings in all cases: glycan notation: IUPAC condensed, linker removed
# [1] = target: Gal(b1-3)GlcNAc(b1-6)GalNAc
# How it was run: (§1)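 The Consortium for Functional Glycomics database supplied 3228 glycan arrays, of which those lacking an available protein sequence were dropped. The binding signal, a within-array Z-score, was averaged across arrays of the same protein sequence and across linkers. Negative scores can be read as non-binding.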
# [2] = target: Gal(b1-3)GlcNAc(b1-6)[Gal(b1-3)]GalNAc
# How it was run: as §1
# Gal(b1-3)GlcNAc6S = target: Gal(b1-3)GlcNAc6S
# How it was run: as §1
# [3] = target: Gal(b1-3)[Fuc(a1-4)]GlcNAc
# How it was run: as §1
# [4] = target: Gal(b1-3)[Fuc(a1-4)]GlcNAc(b1-2)Man
# How it was run: as §1
# [5] = target: Gal(b1-3)[Fuc(a1-4)]GlcNAc(b1-2)Man(a1-3)[Gal(b1-3)[Fuc(a1-4)]GlcNAc(b1-2)Man(a1-6)]Man(b1-4)GlcNAc(b1-4)[Fuc(a1-6)]GlcNAc
# How it was run: as §1
# [6] = target: Gal(b1-3)[Fuc(a1-4)]GlcNAc(b1-3)Gal(b1-3)[Fuc(a1-4)]GlcNAc
# How it was run: as §1
# [7] = target: Gal(b1-3)[Fuc(a1-4)]GlcNAc(b1-3)Gal(b1-4)[Fuc(a1-3)]GlcNAc
# How it was run: as §1
# [8] = target: Gal(b1-3)[Fuc(a1-4)]GlcNAc(b1-6)GalNAc
# How it was run: as §1
# [9] = target: Gal(b1-3)[GlcNAc(b1-6)]GalNAc
# How it was run: as §1
# [10] = target: Gal(b1-3)[Neu5Ac(a2-6)]GalNAc
# How it was run: as §1
# [11] = target: Gal(b1-3)[Neu5Ac(a2-6)]GlcNAc(b1-4)Gal(b1-4)Glc
# How it was run: as §1
# [12] = target: Gal(b1-3)[Neu5Ac(b2-6)]GalNAc
# How it was run: as §1
# Gal(b1-4)Gal = target: Gal(b1-4)Gal
# How it was run: as §1
# [13] = target: Gal(b1-4)GalNAc(a1-3)[Fuc(a1-2)]Gal(b1-4)GlcNAc
# How it was run: as §1
# [14] = target: Gal(b1-4)GalNAc(b1-3)[Fuc(a1-2)]Gal(b1-4)GlcNAc
# How it was run: as §1
# Gal(b1-4)Glc = target: Gal(b1-4)Glc
# How it was run: as §1
# Gal(b1-4)Glc6S = target: Gal(b1-4)Glc6S
# How it was run: as §1
# Gal(b1-4)GlcNAc = target: Gal(b1-4)GlcNAc
# How it was run: as §1
# [15] = target: Gal(b1-4)GlcNAc(a1-6)Gal(b1-4)GlcNAc
# How it was run: as §1
# Gal(b1-4)GlcNAc(b1-2)Man = target: Gal(b1-4)GlcNAc(b1-2)Man
# How it was run: as §1
# [16] = target: Gal(b1-4)GlcNAc(b1-2)Man(a1-3)Man(b1-4)GlcNAc(b1-4)GlcNAc
# How it was run: as §1
# [17] = target: Gal(b1-4)GlcNAc(b1-2)Man(a1-3)[Gal(b1-4)GlcNAc(b1-2)Man(a1-6)]Man(b1-4)GlcNAc(b1-4)GlcNAc
# How it was run: as §1
# [18] = target: Gal(b1-4)GlcNAc(b1-2)Man(a1-3)[Gal(b1-4)GlcNAc(b1-2)Man(a1-6)]Man(b1-4)GlcNAc(b1-4)[Fuc(a1-6)]GlcNAc
# How it was run: as §1
# [19] = target: Gal(b1-4)GlcNAc(b1-2)Man(a1-3)[Gal(b1-4)GlcNAc(b1-2)Man(a1-6)][Gal(b1-4)GlcNAc(b1-4)]Man(b1-4)GlcNAc(b1-4)[Fuc(a1-6)]GlcNAc
# How it was run: as §1
# [20] = target: Gal(b1-4)GlcNAc(b1-2)Man(a1-3)[Gal(b1-4)GlcNAc(b1-2)Man(a1-6)][GlcNAc(b1-4)]Man(b1-4)GlcNAc(b1-4)[Fuc(a1-6)]GlcNAc
# How it was run: as §1
# [21] = target: Gal(b1-4)GlcNAc(b1-2)Man(a1-3)[GlcNAc(b1-2)Man(a1-6)]Man(b1-4)GlcNAc(b1-4)GlcNAc
# How it was run: as §1
# [22] = target: Gal(b1-4)GlcNAc(b1-2)Man(a1-3)[GlcNAc(b1-4)][Gal(b1-4)GlcNAc(b1-2)Man(a1-6)]Man(b1-4)GlcNAc(b1-4)GlcNAc
# How it was run: as §1
# [23] = target: Gal(b1-4)GlcNAc(b1-2)Man(a1-3)[Man(a1-6)]Man(b1-4)GlcNAc(b1-4)GlcNAc
# How it was run: as §1
# [24] = target: Gal(b1-4)GlcNAc(b1-2)Man(a1-6)Man(b1-4)GlcNAc(b1-4)GlcNAc
# How it was run: as §1
# [25] = target: Gal(b1-4)GlcNAc(b1-2)Man(a1-6)[GlcNAc(b1-2)Man(a1-3)]Man(b1-4)GlcNAc(b1-4)GlcNAc
# How it was run: as §1
# [26] = target: Gal(b1-4)GlcNAc(b1-2)Man(a1-6)[Man(a1-3)]Man(b1-4)GlcNAc(b1-4)GlcNAc
# How it was run: as §1
# [27] = target: Gal(b1-4)GlcNAc(b1-2)[Gal(b1-4)GlcNAc(b1-4)]Man(a1-3)[Gal(b1-4)GlcNAc(b1-2)Man(a1-6)]Man(b1-4)GlcNAc(b1-4)GlcNAc
# How it was run: as §1
# [28] = target: Gal(b1-4)GlcNAc(b1-2)[Gal(b1-4)GlcNAc(b1-4)]Man(a1-3)[Gal(b1-4)GlcNAc(b1-2)[Gal(b1-4)GlcNAc(b1-6)]Man(a1-6)]Man(b1-4)GlcNAc(b1-4)GlcNAc
# How it was run: as §1
# [29] = target: Gal(b1-4)GlcNAc(b1-2)[Gal(b1-4)GlcNAc(b1-4)]Man(a1-3)[GlcNAc(b1-4)][Gal(b1-4)GlcNAc(b1-2)Man(a1-6)]Man(b1-4)GlcNAc(b1-4)GlcNAc
# How it was run: as §1
# [30] = target: Gal(b1-4)GlcNAc(b1-2)[Gal(b1-4)GlcNAc(b1-4)]Man(a1-3)[GlcNAc(b1-4)][Gal(b1-4)GlcNAc(b1-2)[Gal(b1-4)GlcNAc(b1-6)]Man(a1-6)]Man(b1-4)GlcNAc(b1-4)GlcNAc
# How it was run: as §1
# [31] = target: Gal(b1-4)GlcNAc(b1-2)[Gal(b1-4)GlcNAc(b1-6)]Man(a1-6)[Gal(b1-4)GlcNAc(b1-2)Man(a1-3)]Man(b1-4)GlcNAc(b1-4)GlcNAc
# How it was run: as §1
# [32] = target: Gal(b1-4)GlcNAc(b1-2)[Gal(b1-4)GlcNAc(b1-6)]Man(a1-6)[Gal(b1-4)GlcNAc(b1-2)Man(a1-3)]Man(b1-4)GlcNAc(b1-4)[Fuc(a1-6)]GlcNAc
# How it was run: as §1
# [33] = target: Gal(b1-4)GlcNAc(b1-2)[Gal(b1-4)GlcNAc(b1-6)]Man(a1-6)[GlcNAc(b1-4)][Gal(b1-4)GlcNAc(b1-2)Man(a1-3)]Man(b1-4)GlcNAc(b1-4)GlcNAc
# How it was run: as §1
# [34] = target: Gal(b1-4)GlcNAc(b1-2)[Gal(b1-4)GlcNAc(b1-6)]Man(a1-6)[GlcNAc(b1-4)][Gal(b1-4)GlcNAc(b1-2)[Gal(b1-4)GlcNAc(b1-4)]Man(a1-3)]Man(b1-4)GlcNAc(b1-4)[Fuc(a1-6)]GlcNAc
# How it was run: as §1
# [35] = target: Gal(b1-4)GlcNAc(b1-3)Gal(b1-3)GalNAc
# How it was run: as §1
# [36] = target: Gal(b1-4)GlcNAc(b1-3)Gal(b1-3)GlcNAc
# How it was run: as §1
# [37] = target: Gal(b1-4)GlcNAc(b1-3)Gal(b1-4)Glc
# How it was run: as §1
# [38] = target: Gal(b1-4)GlcNAc(b1-3)Gal(b1-4)GlcNAc
# How it was run: as §1
# [39] = target: Gal(b1-4)GlcNAc(b1-3)Gal(b1-4)GlcNAc(b1-2)Man(a1-3)[Gal(b1-4)GlcNAc(b1-3)Gal(b1-4)GlcNAc(b1-2)Man(a1-6)]Man(b1-4)GlcNAc(b1-4)GlcNAc
# How it was run: as §1
binder,measurement,setting,value
B1,glycan array binding signal (z-score),[1],0.837
same,glycan array binding signal (z-score),[2],0.3
same,glycan array binding signal (z-score),Gal(b1-3)GlcNAc6S,1.04
same,glycan array binding signal (z-score),[3],0.323
same,glycan array binding signal (z-score),[4],0.038
same,glycan array binding signal (z-score),[5],0.299
same,glycan array binding signal (z-score),[6],-0.872
same,glycan array binding signal (z-score),[7],-0.195
same,glycan array binding signal (z-score),[8],0.733
same,glycan array binding signal (z-score),[9],-0.56
same,glycan array binding signal (z-score),[10],-0.732
same,glycan array binding signal (z-score),[11],0.038
same,glycan array binding signal (z-score),[12],-0.862
same,glycan array binding signal (z-score),Gal(b1-4)Gal,-0.269
same,glycan array binding signal (z-score),[13],-0.534
same,glycan array binding signal (z-score),[14],-0.791
same,glycan array binding signal (z-score),Gal(b1-4)Glc,0.37
same,glycan array binding signal (z-score),Gal(b1-4)Glc6S,-0.154
same,glycan array binding signal (z-score),Gal(b1-4)GlcNAc,-0.56
same,glycan array binding signal (z-score),[15],-0.871
same,glycan array binding signal (z-score),Gal(b1-4)GlcNAc(b1-2)Man,0.118
same,glycan array binding signal (z-score),[16],-0.117
same,glycan array binding signal (z-score),[17],-0.589
same,glycan array binding signal (z-score),[18],-0.364
same,glycan array binding signal (z-score),[19],-0.781
same,glycan array binding signal (z-score),[20],-0.632
same,glycan array binding signal (z-score),[21],-0.186
same,glycan array binding signal (z-score),[22],-0.29
same,glycan array binding signal (z-score),[23],-0.423
same,glycan array binding signal (z-score),[24],-0.595
same,glycan array binding signal (z-score),[25],-0.27
same,glycan array binding signal (z-score),[26],-0.329
same,glycan array binding signal (z-score),[27],-0.481
same,glycan array binding signal (z-score),[28],-0.953
same,glycan array binding signal (z-score),[29],-0.472
same,glycan array binding signal (z-score),[30],1.26
same,glycan array binding signal (z-score),[31],-0.562
same,glycan array binding signal (z-score),[32],-0.347
same,glycan array binding signal (z-score),[33],-0.274
same,glycan array binding signal (z-score),[34],0.804
same,glycan array binding signal (z-score),[35],-0.999
same,glycan array binding signal (z-score),[36],0.555
same,glycan array binding signal (z-score),[37],-0.794
same,glycan array binding signal (z-score),[38],-0.609
same,glycan array binding signal (z-score),[39],0.281

# A run of entries from further up:
binder,measurement,setting,value
B1,glycan array binding signal (z-score),[16],-0.117
same,glycan array binding signal (z-score),[17],-0.589
same,glycan array binding signal (z-score),[18],-0.364
same,glycan array binding signal (z-score),[19],-0.781

# Reference: the supplement of paper PMC8728848
